Reference: the supplement of paper PMC7661543
The effect of the compound repeats well; differences between the knockouts mostly do not.

Tested on: HCC-38
Assay: relative cell number vs DMSO control (72 h) (% of DMSO); higher = less growth inhibition (more cells)
Method: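 QMAP-Seq: a pool of 5 breast cancer cell lines (ZR-75-1, SKBR3, HCC-38, MDA-MB-231, BT-20), each carrying 12 doxycycline-inducible Cas9 sgRNA perturbations (11 knockouts plus non-targeting sgNT), was treated with compounds for 72 h at four 10-fold doses (10 nM-10 uM or 1 nM-1 uM range). Barcodes were amplified and sequenced, and cell number was interpolated from 293T spike-in standard curves. The result is expressed as % of the median of DMSO wells. Two biological replicates.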

CCc1c2c(nc3ccc(O)cc13)-c1cc3c(c(=O)n1C2)COC(=O)[C@]3(O)CC [SN38]
Conditions | relative cell number
sgRNA knockout: sgATF3, 1 nM | 95.7
sgRNA knockout: sgATF3, 10 nM | 37.1
sgRNA knockout: sgATF3, 100 nM | 17.8
sgRNA knockout: sgATF3, 1000 nM | 13.4
sgRNA knockout: sgATF4, 1 nM | 108
sgRNA knockout: sgATF4, 10 nM | 41.3
sgRNA knockout: sgATF4, 100 nM | 17.9
sgRNA knockout: sgATF4, 1000 nM | 13.5
sgRNA knockout: sgATF6, 1 nM | 91.2
sgRNA knockout: sgATF6, 10 nM | 42.5
sgRNA knockout: sgATF6, 100 nM | 14.8
sgRNA knockout: sgATF6, 1000 nM | 12.6
sgRNA knockout: sgATG7, 1 nM | 95
sgRNA knockout: sgATG7, 10 nM | 39
sgRNA knockout: sgATG7, 100 nM | 17.8
sgRNA knockout: sgATG7, 1000 nM | 14.2
sgRNA knockout: sgERN1, 1 nM | 96.7
sgRNA knockout: sgERN1, 10 nM | 38.5
sgRNA knockout: sgERN1, 100 nM | 17.3
sgRNA knockout: sgERN1, 1000 nM | 15.8
sgRNA knockout: sgHSF1, 1 nM | 83.9
sgRNA knockout: sgHSF1, 10 nM | 37.1
sgRNA knockout: sgHSF1, 100 nM | 17.5
sgRNA knockout: sgHSF1, 1000 nM | 17.5
sgRNA knockout: sgHSF2, 1 nM | 96.4
sgRNA knockout: sgHSF2, 10 nM | 41.27
sgRNA knockout: sgHSF2, 100 nM | 16.5
sgRNA knockout: sgHSF2, 1000 nM | 13.7
sgRNA knockout: sgKEAP1, 1 nM | 74.6
sgRNA knockout: sgKEAP1, 10 nM | 43.5
sgRNA knockout: sgKEAP1, 100 nM | 14.352
sgRNA knockout: sgKEAP1, 1000 nM | 10.8
sgRNA knockout: sgNFE2L2, 1 nM | 105
sgRNA knockout: sgNFE2L2, 10 nM | 35.8
sgRNA knockout: sgNFE2L2, 100 nM | 15.9
sgRNA knockout: sgNFE2L2, 1000 nM | 14.3
sgRNA knockout: sgSLC35F2, 1 nM | 105
sgRNA knockout: sgSLC35F2, 10 nM | 45.6
sgRNA knockout: sgSLC35F2, 100 nM | 16.7
sgRNA knockout: sgSLC35F2, 1000 nM | 15.6
sgRNA knockout: sgXBP1, 1 nM | 99.3
sgRNA knockout: sgXBP1, 10 nM | 34.9
sgRNA knockout: sgXBP1, 100 nM | 16
sgRNA knockout: sgXBP1, 1000 nM | 14

CC(C)[C@H](O)C(=O)N[C@@H](C)C(=O)N[C@@H]1C(=O)N(C)CCc2ccccc21 [Semagacestat]
Conditions | relative cell number
sgRNA knockout: sgATF3, 10 nM | 99.8
sgRNA knockout: sgATF3, 100 nM | 113
sgRNA knockout: sgATF3, 1000 nM | 98.52
sgRNA knockout: sgATF3, 10000 nM | 80.2
sgRNA knockout: sgATF4, 10 nM | 95.4
sgRNA knockout: sgATF4, 100 nM | 103
sgRNA knockout: sgATF4, 1000 nM | 114
sgRNA knockout: sgATF4, 10000 nM | 75.8
sgRNA knockout: sgATF6, 10 nM | 110
sgRNA knockout: sgATF6, 100 nM | 101
sgRNA knockout: sgATF6, 1000 nM | 114
sgRNA knockout: sgATF6, 10000 nM | 95.3
sgRNA knockout: sgATG7, 10 nM | 95.5
sgRNA knockout: sgATG7, 100 nM | 106
sgRNA knockout: sgATG7, 1000 nM | 108
sgRNA knockout: sgATG7, 10000 nM | 81.1
sgRNA knockout: sgERN1, 10 nM | 96.8
sgRNA knockout: sgERN1, 100 nM | 102
sgRNA knockout: sgERN1, 1000 nM | 111
sgRNA knockout: sgERN1, 10000 nM | 88.2
sgRNA knockout: sgHSF1, 10 nM | 91.5
sgRNA knockout: sgHSF1, 100 nM | 99.5
sgRNA knockout: sgHSF1, 1000 nM | 98.2
sgRNA knockout: sgHSF1, 10000 nM | 98.7
sgRNA knockout: sgHSF2, 10 nM | 95.3
sgRNA knockout: sgHSF2, 100 nM | 96.8
sgRNA knockout: sgHSF2, 1000 nM | 107
sgRNA knockout: sgHSF2, 10000 nM | 91.7
sgRNA knockout: sgKEAP1, 10 nM | 114
sgRNA knockout: sgKEAP1, 100 nM | 86.7
sgRNA knockout: sgKEAP1, 1000 nM | 99
sgRNA knockout: sgKEAP1, 10000 nM | 111
sgRNA knockout: sgNFE2L2, 10 nM | 99.6
sgRNA knockout: sgNFE2L2, 100 nM | 105
sgRNA knockout: sgNFE2L2, 1000 nM | 114
sgRNA knockout: sgNFE2L2, 10000 nM | 78.5
sgRNA knockout: sgSLC35F2, 10 nM | 96.8
sgRNA knockout: sgSLC35F2, 100 nM | 97.3
sgRNA knockout: sgSLC35F2, 1000 nM | 99.05
sgRNA knockout: sgSLC35F2, 10000 nM | 84.7
sgRNA knockout: sgXBP1, 10 nM | 97.6
sgRNA knockout: sgXBP1, 100 nM | 103
sgRNA knockout: sgXBP1, 1000 nM | 101.9
sgRNA knockout: sgXBP1, 10000 nM | 86

O=C1NC(=O)[C@@H](c2cn3c4c(cccc24)CCC3)[C@@H]1c1c[nH]c2ccccc12 [Tivantinib]
Conditions | relative cell number
sgRNA knockout: sgATF3, 10 nM | 94.6
sgRNA knockout: sgATF3, 100 nM | 84.4
sgRNA knockout: sgATF3, 1000 nM | 37.9
sgRNA knockout: sgATF3, 10000 nM | 29.2
sgRNA knockout: sgATF4, 10 nM | 87.6
sgRNA knockout: sgATF4, 100 nM | 83.1
sgRNA knockout: sgATF4, 1000 nM | 37.8
sgRNA knockout: sgATF4, 10000 nM | 23.9
sgRNA knockout: sgATF6, 10 nM | 112
sgRNA knockout: sgATF6, 100 nM | 89.7
sgRNA knockout: sgATF6, 1000 nM | 40
sgRNA knockout: sgATF6, 10000 nM | 23.4
sgRNA knockout: sgATG7, 10 nM | 90.1
sgRNA knockout: sgATG7, 100 nM | 85.1
sgRNA knockout: sgATG7, 1000 nM | 40.3
sgRNA knockout: sgATG7, 10000 nM | 32.2
sgRNA knockout: sgERN1, 10 nM | 91.8
sgRNA knockout: sgERN1, 100 nM | 85.6
sgRNA knockout: sgERN1, 1000 nM | 39.9
sgRNA knockout: sgERN1, 10000 nM | 25.8
sgRNA knockout: sgHSF1, 10 nM | 93.2
sgRNA knockout: sgHSF1, 100 nM | 98.7
sgRNA knockout: sgHSF1, 1000 nM | 32.5
sgRNA knockout: sgHSF1, 10000 nM | 25.6
sgRNA knockout: sgHSF2, 10 nM | 95.7
sgRNA knockout: sgHSF2, 100 nM | 93.5
sgRNA knockout: sgHSF2, 1000 nM | 41
sgRNA knockout: sgHSF2, 10000 nM | 24.8
sgRNA knockout: sgKEAP1, 10 nM | 109
sgRNA knockout: sgKEAP1, 100 nM | 92.8
sgRNA knockout: sgKEAP1, 1000 nM | 38.2
sgRNA knockout: sgKEAP1, 10000 nM | 26.9
sgRNA knockout: sgNFE2L2, 10 nM | 88.7
sgRNA knockout: sgNFE2L2, 100 nM | 85.2
sgRNA knockout: sgNFE2L2, 1000 nM | 37
sgRNA knockout: sgNFE2L2, 10000 nM | 24.1
sgRNA knockout: sgSLC35F2, 10 nM | 83.9
sgRNA knockout: sgSLC35F2, 100 nM | 84.6
sgRNA knockout: sgSLC35F2, 1000 nM | 40.5
sgRNA knockout: sgSLC35F2, 10000 nM | 25.8
sgRNA knockout: sgXBP1, 10 nM | 86.4
sgRNA knockout: sgXBP1, 100 nM | 84.3
sgRNA knockout: sgXBP1, 1000 nM | 40.1
sgRNA knockout: sgXBP1, 10000 nM | 29.6
